Our source for the mCherry and percent effect values is the supplement of paper PMC8256030.

Experiment [1] concerns SARS-CoV-2 -1 PRF reporter mCherry-FSE-GFP(-1). As to the kind of experiment: mCherry (red) intensity as percent of control; higher = higher upstream reporter expression. To be noted: 10 µM; 24 h; HEK293T.
Experiment [2] has the same test system. As to the kind of experiment: percent effect, decrease of GFP/mCherry ratio (-1 PRF reporter) relative to controls; higher = stronger frameshift inhibition. Particulars: 10 µM; 24 h; HEK293T.

Where “and” joins values, the source holds several entries; their conditions need not be identical. Identical values can stand only once. The list shows a part of the results. Repeats in this data set agree poorly, so a single value says little.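 HEK293T cells were given each compound shortly before transfection with a reporter in which red mCherry is followed by the SARS-CoV-2 frameshift element and then GFP in the −1 frame, so GFP appears only after frameshifting.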

For the compound `CCc1cn([C@H]2C[C@H](O)[C@@H](CO)O2)c(=O)[nH]c1=O`, the mCherry in experiment [1] is 129%. Moreover, the percent effect in experiment [2] was -2.63%.
On to `Cc1cc(-n2nc3ccc(Cl)cc3n2)c(O)c(C(C)(C)C)c1` [bumetrizole], for which the mCherry in experiment [1] came out at 88.9%. The percent effect in experiment [2] is -2.61%.
As for `OCCOCCN1CCN(C(c2ccccc2)c2ccc(Cl)cc2)CC1` (stereo unspecified) [hydroxyzine], the mCherry in experiment [1] was 109% and 108%. The percent effect in experiment [2] is -3.33% and -3.93%.
In turn, `CC1=C(/C=C/C(C)=C/C=C/C(C)=C\C(=O)O)C(C)(C)CCC1` [isotretinoin] had a mCherry in experiment [1] of 105%. Further, in experiment [2], the percent effect is -5.69%.
For `O=C1OC(c2ccc(O)cc2)(c2ccc(O)cc2)c2ccccc21` [phenolphthalein], in that order: 96.7% and -4.39%.
Turning to `Cc1cc(C(=O)NCCc2ccc(S(=O)(=O)NC(=O)NN3CCCCCC3)cc2)no1` [glisoxepide], in experiment [1], the mCherry worked out at 67.9%. In addition, the percent effect in experiment [2] was -1.44%.
As for `Cc1cc(=O)oc2cc(O)ccc12` [hymecromone], the mCherry in experiment [1] was found to be 81.5%. Also, the percent effect in experiment [2] was -5.7%.
With `Cc1ncc(CSSCc2cnc(C)c(O)c2CO)c(CO)c1O` [pyritinol], the mCherry in experiment [1] was 88.5%. For the same compound, in experiment [2], the percent effect is -1.46%.
In turn, `CC1=C(/C=C/C(C)=C/C=C/C(C)=C/C=C/C=C(C)/C=C/C=C(C)/C=C/C2=C(C)CCCC2(C)C)C(C)(C)CCC1` came in with a mCherry in experiment [1] of 67.4%. The percent effect in experiment [2] is 0.347%.
Compound `NS(=O)(=O)c1cc2c(cc1C(F)(F)F)NC(Cc1ccccc1)NS2(=O)=O` (stereo unspecified) [bendroflumethiazide] yielded a mCherry in experiment [1] of 110%. The percent effect in experiment [2] was 0.319%.
As to `O=P1(NCCCl)OCCCN1CCCl` (stereo unspecified) [ifosfamide], the mCherry in experiment [1] was 107% and 95%. The percent effect in experiment [2] was -2.03% and -3.3%.
In experiment [1], `CCCNC(C)C(=O)Nc1ccccc1C` (stereo unspecified) [prilocaine] gave a mCherry of 104%. Moreover, in experiment [2], the percent effect is -3.68%.
`CCCCCCCCCc1ccc(OCCOCCOCCOCCOCCOCCOCCOCCOCCO)cc1`: the mCherry in experiment [1] worked out at 85%. The percent effect in experiment [2] was -6.36%.
